Measured values taken from patent publication US20160017024A1.
No constants are given. Whether binding was seen depends on the method and setting. Some results given as binding are weak or reduced against the parent protein; the word gives no strength.

Experiments:
[1] = target: Human ALK ECD-Fc (human); test: SPR (Biacore T100), ECD-Fc captured on anti-human IgG CM4 chip, FAM150B as analyte
[2] = target: Human LTK extracellular domain (ECD)-Fc (human); test: as above

B1: Human FAM150B (ligand)
chain: GAEPREPADGQALLRLVVELVQELRKHHSAEHKGLQLLGRDCALGRAEAAGLGPSPEQRVEIVPRDLRMKDKFLKHLTGPLYFSPKCSKHFHRLYHNTRDCTIPAYYKRCARLLTRLAVSPVCMEDKQ
Question: B1 was tested. Which binding [1] did it give?
Answer: binds

Question: And the binding [2]?
Answer: binds
